Publication PMC10154249, “Unique progerin C-terminal peptide ameliorates Hutchinson–Gilford progeria syndrome phenotype by rescuing BUBR1” (Nature Aging, 2023)

System: progerin
Experiment: MS analysis of progerin-binding proteins
Settings: Fig. 4e; sequence coverage of interacting protein

B1: LaminB2 (protein)
chain: MSPPSPGRRREQRRPRAAATMATPLPGRAGGPATPLSPTRLSRLQEKEELRELNDRLAHYIDRVRALELENDRLLLKISEKEEVTTREVSGIKALYESELADARRVLDETARERARLQIEIGKLRAELDEVNKSAKKREGELTVAQGRVKDLESLFHRSEVELAAALSDKRGLESDVAELRAQLAKAEDGHAVAKKQLEKETLMRVDLENRCQSLQEELDFRKSVFEEEVRETRRRHERRLVEVDSSRQQEYDFKMAQALEELRSQHDEQVRLYKLELEQTYQAKLDSAKLSSDQNDKAASAAREELKEARMRLESLSYQLSGLQKQASAAEDRIRELEEAMAGERDKFRKMLDAKEQEMTEMRDVMQQQLAEYQELLDVKLALDMEINAYRKLLEGEEERLKLSPSPSSRVTVSRATSSSSGSLSATGRLGRSKRKRLEVEEPLGSGPSVLGTGTGGSGGFHLAQQASASGSVSIEEIDLEGKFVQLKNNSDKDQSLGNWRIKRQVLEGEEIAYKFTPKYILRAGQMVTVWAAGAGVAHSPPSTLVWKGQSSWGTGESFRTVLVNADGEEVAMRTVKKSSVMRENENGEEEEEEAEFGEEDLFHQQGDPRTTSRGCYVM
- Coverage (mass spectrometry assays of the interacting proteins of progerin): 4.35%
